PubChem BioAssay AID1224831 – NIAID – 2016
This is a random part of about 3,500 reagents. In the full data, 731 (21%) were called active. 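Active means either lowered or raised reporter signal; the gene-median score did not drive the per-siRNA calls.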 Unmarked entries are inactive.

- Assay: 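Genes that support or restrain LPS-induced TNF-alpha reporter activity in macrophage-like cells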 (follow-up of hits)
- System: human THP-1 B5 monocytic leukaemia cells carrying a TNF promoter luciferase reporter, made macrophage-like with PMA
- Knock-down reagent: single siRNA against human genes, 50 nM
- Duration: about 68 h of knock-down, then 4 h LPS
- Conditions: LPS (Salmonella minnesota, TLR-grade) at 10 ng/ml for 4 h; PMA 5 ng/ml present during knock-down
- Detection: 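TNF promoter reporter read as dual luciferase ratio after 4 h LPS, normalised per plate to its median, given as replicate mean robust z-score per siRNA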
- Reading the numbers: TNF reporter z-score: higher = stronger LPS-induced TNF reporter signal; z-score, median over gene's siRNAs: higher = stronger TNF reporter signal across the gene's siRNAs
- Hit rule: 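Two-sided call: reduced or raised TNF reporter signal counts as active once mean z reaches about -1 or below, or about 1.5 or above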
- Calls: active = changed TNF reporter (either direction); inactive = little change

GNAT2 (G protein subunit alpha transducin 2) [SID315482388] | TNF reporter z-score, replicate mean: 0.1; z-score, median over gene's siRNAs: 0.145
GNAT2 (G protein subunit alpha transducin 2) [SID315482389] | TNF reporter z-score, replicate mean: 0.3; z-score, median over gene's siRNAs: 0.145
GNAT2 (G protein subunit alpha transducin 2) [SID315482390] | TNF reporter z-score, replicate mean: -0.19; z-score, median over gene's siRNAs: 0.145
GNAT2 (G protein subunit alpha transducin 2) [SID315482391] | TNF reporter z-score, replicate mean: 0.19; z-score, median over gene's siRNAs: 0.145
GNAT2 (G protein subunit alpha transducin 2) [SID315482392] | TNF reporter z-score, replicate mean: 0.2; z-score, median over gene's siRNAs: 0.145
GNAT2 (G protein subunit alpha transducin 2) [SID315482393] | TNF reporter z-score, replicate mean: -0.17; z-score, median over gene's siRNAs: 0.145
ATAD3A (ATPase family AAA domain containing 3A) [SID315485817] | TNF reporter z-score, replicate mean: 0.19; z-score, median over gene's siRNAs: -0.25
ATAD3A (ATPase family AAA domain containing 3A) [SID315485818] | TNF reporter z-score, replicate mean: -0.09; z-score, median over gene's siRNAs: -0.25
ATAD3A (ATPase family AAA domain containing 3A) [SID315485819] | TNF reporter z-score, replicate mean: -0.75; z-score, median over gene's siRNAs: -0.25
ATAD3A (ATPase family AAA domain containing 3A) [SID315485820] | TNF reporter z-score, replicate mean: -0.41; z-score, median over gene's siRNAs: -0.25
ATAD3A (ATPase family AAA domain containing 3A) [SID315485821] | TNF reporter z-score, replicate mean: 0.62; z-score, median over gene's siRNAs: -0.25
ATAD3A (ATPase family AAA domain containing 3A) [SID315485822] | TNF reporter z-score, replicate mean: -0.56; z-score, median over gene's siRNAs: -0.25
TTLL3 (tubulin tyrosine ligase like 3) [SID315485277] | TNF reporter z-score, replicate mean: 1.49; z-score, median over gene's siRNAs: 0.69
TTLL3 (tubulin tyrosine ligase like 3) [SID315485278] | TNF reporter z-score, replicate mean: 0.82; z-score, median over gene's siRNAs: 0.69
TTLL3 (tubulin tyrosine ligase like 3) [SID315485279] | TNF reporter z-score, replicate mean: -0.89; z-score, median over gene's siRNAs: 0.69
TTLL3 (tubulin tyrosine ligase like 3) [SID315485280] | TNF reporter z-score, replicate mean: -0.36; z-score, median over gene's siRNAs: 0.69
TTLL3 (tubulin tyrosine ligase like 3) [SID315485281] | TNF reporter z-score, replicate mean: 0.56; z-score, median over gene's siRNAs: 0.69
TTLL3 (tubulin tyrosine ligase like 3) [SID315485282] | TNF reporter z-score, replicate mean: 1.25; z-score, median over gene's siRNAs: 0.69
RNASE10 (ribonuclease A family member 10 (inactive)) [SID315489045] | TNF reporter z-score, replicate mean: 0.34; z-score, median over gene's siRNAs: 0.13
RNASE10 (ribonuclease A family member 10 (inactive)) [SID315489046] | TNF reporter z-score, replicate mean: -0.08; z-score, median over gene's siRNAs: 0.13
RNASE10 (ribonuclease A family member 10 (inactive)) [SID315489047] | TNF reporter z-score, replicate mean: -0.28; z-score, median over gene's siRNAs: 0.13
RNASE10 (ribonuclease A family member 10 (inactive)) [SID315489048] | TNF reporter z-score, replicate mean: -0.65; z-score, median over gene's siRNAs: 0.13
RNASE10 (ribonuclease A family member 10 (inactive)) [SID315489049] | TNF reporter z-score, replicate mean: 2.1 (active); z-score, median over gene's siRNAs: 0.13
RNASE10 (ribonuclease A family member 10 (inactive)) [SID315489050] | TNF reporter z-score, replicate mean: 0.94; z-score, median over gene's siRNAs: 0.13
MAFG (MAF bZIP transcription factor G) [SID315482568] | TNF reporter z-score, replicate mean: 0.04; z-score, median over gene's siRNAs: -0.065
MAFG (MAF bZIP transcription factor G) [SID315482569] | TNF reporter z-score, replicate mean: -0.17; z-score, median over gene's siRNAs: -0.065
MAFG (MAF bZIP transcription factor G) [SID315482570] | TNF reporter z-score, replicate mean: 0.42; z-score, median over gene's siRNAs: -0.065
MAFG (MAF bZIP transcription factor G) [SID315482571] | TNF reporter z-score, replicate mean: 0.26; z-score, median over gene's siRNAs: -0.065
MAFG (MAF bZIP transcription factor G) [SID315482572] | TNF reporter z-score, replicate mean: -0.4; z-score, median over gene's siRNAs: -0.065
MAFG (MAF bZIP transcription factor G) [SID315482573] | TNF reporter z-score, replicate mean: -0.86; z-score, median over gene's siRNAs: -0.065
ARL8B (ARF like GTPase 8B) [SID315485811] | TNF reporter z-score, replicate mean: -1.6 (active); z-score, median over gene's siRNAs: -0.13
ARL8B (ARF like GTPase 8B) [SID315485812] | TNF reporter z-score, replicate mean: -1.4 (active); z-score, median over gene's siRNAs: -0.13
ARL8B (ARF like GTPase 8B) [SID315485813] | TNF reporter z-score, replicate mean: 0.39; z-score, median over gene's siRNAs: -0.13
ARL8B (ARF like GTPase 8B) [SID315485814] | TNF reporter z-score, replicate mean: -0.18; z-score, median over gene's siRNAs: -0.13
ARL8B (ARF like GTPase 8B) [SID315485815] | TNF reporter z-score, replicate mean: -0.08; z-score, median over gene's siRNAs: -0.13
ARL8B (ARF like GTPase 8B) [SID315485816] | TNF reporter z-score, replicate mean: 0.03; z-score, median over gene's siRNAs: -0.13
ICAM2 (intercellular adhesion molecule 2) [SID315482484] | TNF reporter z-score, replicate mean: 1.28; z-score, median over gene's siRNAs: -0.195
ICAM2 (intercellular adhesion molecule 2) [SID315482485] | TNF reporter z-score, replicate mean: 1.18; z-score, median over gene's siRNAs: -0.195
ICAM2 (intercellular adhesion molecule 2) [SID315482486] | TNF reporter z-score, replicate mean: -0.33; z-score, median over gene's siRNAs: -0.195
ICAM2 (intercellular adhesion molecule 2) [SID315482487] | TNF reporter z-score, replicate mean: -1.62 (active); z-score, median over gene's siRNAs: -0.195
ICAM2 (intercellular adhesion molecule 2) [SID315482488] | TNF reporter z-score, replicate mean: -0.15; z-score, median over gene's siRNAs: -0.195
ICAM2 (intercellular adhesion molecule 2) [SID315482489] | TNF reporter z-score, replicate mean: -0.24; z-score, median over gene's siRNAs: -0.195
GBE1 (1,4-alpha-glucan branching enzyme 1) [SID315482352] | TNF reporter z-score, replicate mean: -0.17; z-score, median over gene's siRNAs: -0.185
GBE1 (1,4-alpha-glucan branching enzyme 1) [SID315482353] | TNF reporter z-score, replicate mean: 1.01; z-score, median over gene's siRNAs: -0.185
GBE1 (1,4-alpha-glucan branching enzyme 1) [SID315482354] | TNF reporter z-score, replicate mean: -0.2; z-score, median over gene's siRNAs: -0.185
GBE1 (1,4-alpha-glucan branching enzyme 1) [SID315482355] | TNF reporter z-score, replicate mean: -0.23; z-score, median over gene's siRNAs: -0.185
GBE1 (1,4-alpha-glucan branching enzyme 1) [SID315482356] | TNF reporter z-score, replicate mean: 0.13; z-score, median over gene's siRNAs: -0.185
GBE1 (1,4-alpha-glucan branching enzyme 1) [SID315482357] | TNF reporter z-score, replicate mean: -0.37; z-score, median over gene's siRNAs: -0.185
TMEM200B (transmembrane protein 200B) [SID315489201] | TNF reporter z-score, replicate mean: -0.15; z-score, median over gene's siRNAs: 0.565
TMEM200B (transmembrane protein 200B) [SID315489202] | TNF reporter z-score, replicate mean: 1.93 (active); z-score, median over gene's siRNAs: 0.565
TMEM200B (transmembrane protein 200B) [SID315489203] | TNF reporter z-score, replicate mean: -0.04; z-score, median over gene's siRNAs: 0.565
TMEM200B (transmembrane protein 200B) [SID315489204] | TNF reporter z-score, replicate mean: 1.14; z-score, median over gene's siRNAs: 0.565
TMEM200B (transmembrane protein 200B) [SID315489205] | TNF reporter z-score, replicate mean: 0.44; z-score, median over gene's siRNAs: 0.565
TMEM200B (transmembrane protein 200B) [SID315489206] | TNF reporter z-score, replicate mean: 0.69; z-score, median over gene's siRNAs: 0.565

9 neighbouring reagents already listed:
ICAM2 (intercellular adhesion molecule 2) [SID315482484] | TNF reporter z-score, replicate mean: 1.28; z-score, median over gene's siRNAs: -0.195
ICAM2 (intercellular adhesion molecule 2) [SID315482485] | TNF reporter z-score, replicate mean: 1.18; z-score, median over gene's siRNAs: -0.195
ICAM2 (intercellular adhesion molecule 2) [SID315482486] | TNF reporter z-score, replicate mean: -0.33; z-score, median over gene's siRNAs: -0.195
ICAM2 (intercellular adhesion molecule 2) [SID315482487] | TNF reporter z-score, replicate mean: -1.62 (active); z-score, median over gene's siRNAs: -0.195
ICAM2 (intercellular adhesion molecule 2) [SID315482488] | TNF reporter z-score, replicate mean: -0.15; z-score, median over gene's siRNAs: -0.195
ICAM2 (intercellular adhesion molecule 2) [SID315482489] | TNF reporter z-score, replicate mean: -0.24; z-score, median over gene's siRNAs: -0.195
GBE1 (1,4-alpha-glucan branching enzyme 1) [SID315482352] | TNF reporter z-score, replicate mean: -0.17; z-score, median over gene's siRNAs: -0.185
GBE1 (1,4-alpha-glucan branching enzyme 1) [SID315482353] | TNF reporter z-score, replicate mean: 1.01; z-score, median over gene's siRNAs: -0.185
GBE1 (1,4-alpha-glucan branching enzyme 1) [SID315482354] | TNF reporter z-score, replicate mean: -0.2; z-score, median over gene's siRNAs: -0.185
